Data taken from paper PMC10274650 (bioRxiv, 2023).
Square brackets hold non-standard residues; d marks the D form. Peptide text beside a SMILES is read from it. pGlu = O=C1CC[C@@H](C(=O)O)N1

Assay: Endogenous capped peptide levels in mouse plasma by LC-MS

Compound	endogenous plasma level in the other comparisons (fasting, HFD, 6AM/6PM, old/young, run/sedentary)	induction of endogenous plasma level under nutritional stressors (fasting and high fat diet feeding, N=3/group, LC-MS) [fold]
CC[C@H](C)[C@H](NC(=O)CNC(=O)[C@H](Cc1c[nH]c2ccccc12)NC(=O)[C@H](CO)NC(=O)[C@H](Cc1c[nH]cn1)NC(=O)[C@H](CO)NC(=O)[C@H](CCCCN)NC(=O)[C@@H]1CCCN1C(=O)[C@H](CC(C)C)NC(=O)[C@H](CC(C)C)NC(=O)[C@H](CC(C)C)NC(=O)[C@@H]1CCC(=O)N1)C(=O)N[C@H](C(=O)N[C@@H](CC(C)C)C(=O)N1CCC[C@H]1C(=O)N[C@@H](CC(C)C)C(=O)NCC(=O)N[C@@H](CCC(=O)O)C(=O)N[C@@H](CC(C)C)C(=O)N[C@@H](CCC(=O)O)C(N)=O)C(C)C [CAP-CSF1] ([pGlu]LLLPKSHSWGIVLPLGELE-NH2)	unchanged	
CC(C)[C@H](NC(=O)[C@@H]1CCC(=O)N1)C(=O)N[C@@H](CCC(=O)O)C(=O)N[C@@H](C)C(N)=O [CAP-VGF, pGlu-VEA-NH2] ([pGlu]VEA-NH2)		> 3
